These are yes or no findings as the source states them, for the method shown. Binding seen in cells or lysates may run through a third protein. Some results given as binding are weak or reduced against the parent protein; the word gives no strength. Where a sequence is shown, tags or fusion partners need not be part of it.
Biological target: HA-HIF-1α (UniProt Q16665)
Test: co-IP; A549 cells transfected with HA-HIF-1α and Flag-ZNF91 plasmids; precipitation of either Flag-ZNF91 or HA-HIF-1α; with and without CuB (cucurbitacin B), which attenuated the interaction

The chains behind the UniProt entries cited, without tags or fusion partners.
UniProt Q16665: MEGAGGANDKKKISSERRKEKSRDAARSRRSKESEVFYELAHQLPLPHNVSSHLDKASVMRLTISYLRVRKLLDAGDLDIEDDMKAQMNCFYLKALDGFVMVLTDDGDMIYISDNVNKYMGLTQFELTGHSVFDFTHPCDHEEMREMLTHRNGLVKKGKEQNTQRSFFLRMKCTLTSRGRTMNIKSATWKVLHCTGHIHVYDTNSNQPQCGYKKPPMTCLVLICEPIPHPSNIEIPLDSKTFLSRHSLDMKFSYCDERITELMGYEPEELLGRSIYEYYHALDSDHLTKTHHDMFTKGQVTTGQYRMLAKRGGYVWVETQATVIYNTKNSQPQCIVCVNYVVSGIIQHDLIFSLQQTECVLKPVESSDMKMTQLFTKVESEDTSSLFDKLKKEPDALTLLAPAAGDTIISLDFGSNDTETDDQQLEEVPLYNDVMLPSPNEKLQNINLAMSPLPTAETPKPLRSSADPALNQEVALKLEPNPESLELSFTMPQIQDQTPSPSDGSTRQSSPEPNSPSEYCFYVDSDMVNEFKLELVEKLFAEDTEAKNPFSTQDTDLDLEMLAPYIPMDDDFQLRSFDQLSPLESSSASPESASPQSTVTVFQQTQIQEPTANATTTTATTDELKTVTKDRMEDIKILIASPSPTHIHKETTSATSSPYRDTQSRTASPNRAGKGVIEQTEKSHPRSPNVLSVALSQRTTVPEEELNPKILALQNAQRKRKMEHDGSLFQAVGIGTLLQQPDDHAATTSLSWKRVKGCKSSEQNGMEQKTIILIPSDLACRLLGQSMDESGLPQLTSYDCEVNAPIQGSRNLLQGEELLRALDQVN

B1: Flag-ZFP91 (protein, UniProt Q96JP5 1-570)
chain: MPGETEEPRPPEQQDQEGGEAAKAAPEEPQQRPPEAVAAAPAGTTSSRVLRGGRDRGRAAAAAAAAAVSRRRKAEYPRRRRSSPSARPPDVPGQQPQAAKSPSPVQGKKSPRLLCIEKVTTDKDPKEEKEEEDDSALPQEVSIAASRPSRGWRSSRTSVSRHRDTENTRSSRSKTGSLQLICKSEPNTDQLDYDVGEEHQSPGGISSEEEEEEEEEMLISEEEIPFKDDPRDETYKPHLERETPKPRRKSGKVKEEKEKKEIKVEVEVEVKEEENEIREDEEPPRKRGRRRKDDKSPRLPKRRKKPPIQYVRCEMEGCGTVLAHPRYLQHHIKYQHLLKKKYVCPHPSCGRLFRLQKQLLRHAKHHTDQRDYICEYCARAFKSSHNLAVHRMIHTGEKPLQCEICGFTCRQKASLNWHMKKHDADSFYQFSCNICGKKFEKKDSVVAHKAKSHPEVLIAEALAANAGALITSTDILGTNPESLTQPSDGQGLPLLPEPLGNSTSGECLLLEAEGMSKSYCSGTERVSLMADGKIFVGSGSSGGTEGLVMNSDILGATTEVLIEDSDSAGP
In the case of B1, the binding is reported as “binds”.

Reference: article PMC12444886
